Measurements reported in PubChem BioAssay AID504804 (Drosophila RNAi Screening Center, 2011).
In all, the deposit lists about 19,000 reagents; shown is an unselected part of those that have a named target and a result. Over the whole deposit, 47 (0.25%) are marked active. 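Signals are raw, not normalised; exact z-scores behind calls not deposited; actives needed confirmation, so some wells reaching 2 SD are inactive.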 The numbers tell different reagents against one gene apart. A plus sign joins genes that one reagent is predicted to hit. No sequences are given here.

- Test: 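dsRNAs that improve Kc cell survival under doxorubicin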 (primary screen)
- Cells: Drosophila Kc cells
- Reagent: long dsRNA against Drosophila genes, 0.5 µg dsRNA per well
- Time to read-out: 96 h (48 h knock-down, then 48 h drug)
- Challenge: doxorubicin 5 µg/ml for 48 h, added 48 h after dsRNA
- Measured: 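Luminescent ATP counts per replicate, not normalised, reflecting viable cells after 48 h dsRNA knock-down followed by 48 h of 5 µg/ml doxorubicin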
- Scale: raw ATP luminescence: higher = more viable cells, protection from doxorubicin
- Active means: 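z-score of 2 or more over plate mean in both duplicates, retained only when retests and separate dsRNAs confirm the protection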

no.	gene	dsRNA no.	SD above plate mean	raw ATP luminescence, replicate 1	raw ATP luminescence, replicate 2	Outcome
1	CG5033	1		62297	74970	inactive
2	CG11384	1		57380	63520	inactive
3	CG14879	1		89930	73470	inactive
4	Hibch (3-hydroxyisobutyryl-CoA hydrolase)	1		64970	23190	inactive
5	CG7806	1		99133	63583	inactive
6	Hrb27C (Heterogeneous nuclear ribonucleoprotein at 27C)	1		1.19e5	53010	inactive
7	CG13737	1		61483	44737	inactive
8	CG32563	1		3.89e5	3.32e5	inactive
9	Septin2 (Septin 2)	1		51550	54127	inactive
10	osp (outspread)	1		2.75e5	3.11e5	inactive
11	osp (outspread)	2		99063	69617	inactive
12	CG13747	1		40107	72043	inactive
13	CG12016 + Dpm2	1		27550	37650	inactive
14	Ance-4	1		54947	75713	inactive
15	clu (clueless)	1		55887	65403	inactive
16	CG31221	1		52550	47290	inactive
17	CG31221	2		73410	93630	inactive
18	CG42525	1		1.39e5	1.45e5	inactive
19	CG13133	1		49803	74637	inactive
20	CG31937	1		1.23e5	86443	inactive
21	CG3847	1		2.04e5	2.11e5	inactive
22	Coq4 + frc	1		38090	41160	inactive
23	Coq4 + frc	2		1.03e5	60930	inactive
24	side-VI (sidestep VI)	1		73350	61623	inactive
25	side-VI (sidestep VI)	2		69903	43533	inactive
26	side-VI (sidestep VI)	3		45900	52893	inactive
27	side-VI (sidestep VI)	4		36197	37377	inactive
28	Nup133 (Nucleoporin 133kD)	1		33987	45543	inactive
29	CG32281	1		38540	44967	inactive
30	CG2926	1		60847	26703	inactive
31	CNT1 (Concentrative nucleoside transporter 1)	1		52113	69870	inactive
32	CG11983	1		54637	58710	inactive
33	Nep7 (Neprilysin 7)	1		52810	44090	inactive
34	CG1698	1		51810	40387	inactive
35	CG32091	1		81977	52153	inactive
36	CG32091	2		73403	57580	inactive
37	Sec15 (Secretory 15)	1		64490	1.03e5	inactive
38	CG42264	1		45650	58050	inactive
39	CG42264	2		50950	55060	inactive
40	Spec2 (retired record)	1		66687	66047	inactive
41	CG9328	1		31500	38283	inactive
42	app (approximated)	1		1.31e5	1.72e5	inactive
43	app (approximated)	2		68837	56410	inactive
44	app (approximated)	3		62727	65227	inactive
45	Gr10b (Gustatory receptor 10b)	1		2.60e5	2.79e5	inactive
46	CG11858	1		60680	78900	inactive
47	CG32603	1		3.69e5	3.39e5	inactive
48	CG8475	1		1.17e5	64080	inactive
49	CCT3 (Chaperonin containing TCP1 subunit 3)	1		47873	46383	inactive
50	CG8750	1		51977	51313	inactive
51	Pih1D1 (PIH1 domain containing 1)	1		91137	73443	inactive
52	CG4325	1		12850	15270	inactive
53	CG14752	1		37740	71177	inactive
54	CG14022	1		22163	23613	inactive
55	CG1998	1		3.81e5	4.26e5	inactive
56	hdm (hold'em)	1		34830	41250	inactive
57	Tmtc1 (Transmembrane O-mannosyltransferase targeting cadherins 1)	1		3.11e5	3.20e5	inactive
58	Tmtc1 (Transmembrane O-mannosyltransferase targeting cadherins 1)	2		2.94e5	3.32e5	inactive
59	nrv1 (nervana 1)	1	at least 2 SD above plate mean	1.51e5	1.15e5	active
60	mms4 (Methyl methanesulfonate sensitivity 4)	1		30963	82893	inactive
61	CG5196	1		66790	51127	inactive
62	Npc1a (Niemann-Pick type C-1a)	1		43043	75307	inactive
63	CG15909	1		66997	62663	inactive
64	CG15332	1		26980	28660	inactive
65	CG10055	1		74287	65520	inactive
66	Tmep (Transmembrane endosomal protein)	1		49303	64597	inactive
67	klg (klingon)	1		3.11e5	2.63e5	inactive
68	klg (klingon)	2		50440	60570	inactive
69	CG10140	1		80853	73427	inactive
70	CG13999	1		24283	24737	inactive
71	CG14185	1		68100	62187	inactive
72	CG11634	1		53597	58143	inactive
73	CG16736	1		51357	51173	inactive
74	CG34238	1		1.96e5	2.04e5	inactive
75	PlexB (Plexin B)	1		57960	22060	inactive
76	RhoGAP68F (Rho GTPase activating protein at 68F)	1		45953	44137	inactive
77	Rab2	1		72237	57097	inactive
78	CG6441	1		24667	21617	inactive
79	RpS27A (Ribosomal protein S27A)	1		32823	69450	inactive
80	Prp5 (pre-mRNA processing factor 5)	1		1.92e5	2.38e5	inactive
81	tmod (tropomodulin)	1		2.88e5	2.61e5	inactive
82	tmod (tropomodulin)	2		49060	40270	inactive
83	tmod (tropomodulin)	3		72180	46100	inactive
84	CG13380 + CG4174	1	at least 3 SD above plate mean	49700	47243	active
85	CG13380 + CG4174	2		37073	37147	inactive
